# Test results taken from article PMC9578197.
# Construct, isoform or probe ends are uncertain for at least one entry. For part of these data: No signal at the amounts used counts as a negative.
# Experiments:
# [1] = system: His-FfMYB15 (Flammulina filiformis); test: competition EMSA; conditions: Light Shift Chemiluminescent EMSA kit (Beyotime), pH and temperature not stated, recombinant protein, protein details: His (pCold I)
# [2] = system: His-FfMYB15 (Flammulina filiformis); test: EMSA; conditions: Light Shift Chemiluminescent EMSA kit (Beyotime); pH and temperature not stated; recombinant protein; protein details: His (pCold I); label: 3' biotin
sequence,measurement,setting,value
"TTGCCACCTCAACTCCTCTAGCTCCAAAAAATCAGTTTCCTATCTCAAGGAAGTTT (double strand) [FfCEL6B mutant probe (CAACCA to AAAAAA), competitor]",binding result,"[1]; excess mutant competitor vs N1, shift not eliminated",no binding
"TTGCCACCTCAACTCCTCTAGCTCCCAACCATCAGTTTCCTATCTCAAGGAAGTTT (double strand) [FfCEL6B promoter probe (56 bp, MYB motif), biotin-labeled]",binding result,[2],binds
"TTGCCACCTCAACTCCTCTAGCTCCCAACCATCAGTTTCCTATCTCAAGGAAGTTT (double strand) [FfCEL6B promoter probe, unlabeled competitor]",binding result,"[1]; excess cold competitor vs N1, shift abolished",binds
